Results are given in words; binding and its absence hold for the method and conditions named. Some entries that bind do so weakly or less than the wild type.
How the values were obtained:
[1] = target: T1, Genome-derived Neisserial antigen GNA0667 (Neisseria meningitidis) (UniProt Q9K0E2); assay: ELISA; plastic wells coated with the recombinant Nm proteins (1 μg/well), incubated with human or murine PTX3, human CRP or SAP (22 pmoles) for 1 h at 37°C, then antibodies; A450; both purified
T1 sequence: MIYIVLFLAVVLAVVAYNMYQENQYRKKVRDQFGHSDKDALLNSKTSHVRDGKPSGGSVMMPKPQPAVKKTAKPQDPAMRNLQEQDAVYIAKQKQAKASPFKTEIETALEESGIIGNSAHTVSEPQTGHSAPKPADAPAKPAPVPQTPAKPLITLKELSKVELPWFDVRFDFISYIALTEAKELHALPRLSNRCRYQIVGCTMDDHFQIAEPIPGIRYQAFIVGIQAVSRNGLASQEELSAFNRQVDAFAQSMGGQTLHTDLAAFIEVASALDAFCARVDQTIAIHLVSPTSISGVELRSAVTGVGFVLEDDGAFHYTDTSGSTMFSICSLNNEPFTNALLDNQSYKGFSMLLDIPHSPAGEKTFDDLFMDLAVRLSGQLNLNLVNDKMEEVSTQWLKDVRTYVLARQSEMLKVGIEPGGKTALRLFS

Chains of the proteins cited; added tags and fusions are not shown. Residues count along the entry.
UniProt Q9JXK7, residues 24-362: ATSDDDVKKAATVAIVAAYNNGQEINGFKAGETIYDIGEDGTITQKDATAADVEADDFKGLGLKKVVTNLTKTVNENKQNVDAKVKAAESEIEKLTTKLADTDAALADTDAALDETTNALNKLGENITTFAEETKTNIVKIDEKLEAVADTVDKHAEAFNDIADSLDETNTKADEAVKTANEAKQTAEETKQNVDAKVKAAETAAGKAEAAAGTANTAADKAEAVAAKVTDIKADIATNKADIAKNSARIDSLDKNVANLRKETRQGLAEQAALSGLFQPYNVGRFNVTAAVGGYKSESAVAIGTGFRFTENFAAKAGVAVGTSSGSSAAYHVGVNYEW
UniProt Q9JXV4, residues 20-274: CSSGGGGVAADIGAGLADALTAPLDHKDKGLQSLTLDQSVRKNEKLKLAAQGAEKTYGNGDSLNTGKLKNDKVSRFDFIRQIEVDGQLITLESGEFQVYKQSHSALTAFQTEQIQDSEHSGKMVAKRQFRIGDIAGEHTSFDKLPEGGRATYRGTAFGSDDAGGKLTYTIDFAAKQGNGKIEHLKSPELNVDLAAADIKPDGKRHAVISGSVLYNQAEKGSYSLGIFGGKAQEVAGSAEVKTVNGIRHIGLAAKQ
UniProt P02743, residues 20-223: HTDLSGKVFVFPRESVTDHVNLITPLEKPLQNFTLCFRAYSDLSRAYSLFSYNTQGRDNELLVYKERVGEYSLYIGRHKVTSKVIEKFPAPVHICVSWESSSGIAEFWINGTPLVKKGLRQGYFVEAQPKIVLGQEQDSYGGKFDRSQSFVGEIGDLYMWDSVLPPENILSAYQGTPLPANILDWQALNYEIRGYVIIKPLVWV
UniProt P48759, residues 18-381: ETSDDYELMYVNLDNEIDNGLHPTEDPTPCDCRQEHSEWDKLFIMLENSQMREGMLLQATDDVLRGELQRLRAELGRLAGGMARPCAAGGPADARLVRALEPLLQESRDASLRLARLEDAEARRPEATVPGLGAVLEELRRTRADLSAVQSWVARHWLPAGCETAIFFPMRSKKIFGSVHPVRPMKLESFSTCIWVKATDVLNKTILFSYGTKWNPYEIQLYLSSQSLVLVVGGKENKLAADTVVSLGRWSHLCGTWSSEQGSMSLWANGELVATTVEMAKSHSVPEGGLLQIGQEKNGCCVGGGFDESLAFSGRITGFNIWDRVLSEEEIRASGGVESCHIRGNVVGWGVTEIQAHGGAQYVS
UniProt P26022, residues 18-381: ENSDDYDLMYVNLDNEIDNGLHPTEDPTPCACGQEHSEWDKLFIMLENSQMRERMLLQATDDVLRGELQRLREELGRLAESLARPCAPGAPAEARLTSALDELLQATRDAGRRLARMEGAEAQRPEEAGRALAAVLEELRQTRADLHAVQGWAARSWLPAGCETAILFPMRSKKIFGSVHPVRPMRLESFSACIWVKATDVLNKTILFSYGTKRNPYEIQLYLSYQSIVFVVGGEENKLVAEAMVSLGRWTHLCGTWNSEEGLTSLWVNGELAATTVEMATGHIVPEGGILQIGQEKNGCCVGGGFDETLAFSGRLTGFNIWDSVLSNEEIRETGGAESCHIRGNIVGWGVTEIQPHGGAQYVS

[2] = target: Genome-derived Neisserial antigen GNA1220 (Neisseria meningitidis) (UniProt Q7DDD7); assay: as above
[3] = target: Genome-derived Neisserial antigen GNA1994 (Neisseria meningitidis) (UniProt Q9JXK7); assay: as above
[4] = target: T2, GNA2132 (Neisserial heparin binding antigen, NHBA) (Neisseria meningitidis) (UniProt Q7DD37); assay: as above
T2 sequence: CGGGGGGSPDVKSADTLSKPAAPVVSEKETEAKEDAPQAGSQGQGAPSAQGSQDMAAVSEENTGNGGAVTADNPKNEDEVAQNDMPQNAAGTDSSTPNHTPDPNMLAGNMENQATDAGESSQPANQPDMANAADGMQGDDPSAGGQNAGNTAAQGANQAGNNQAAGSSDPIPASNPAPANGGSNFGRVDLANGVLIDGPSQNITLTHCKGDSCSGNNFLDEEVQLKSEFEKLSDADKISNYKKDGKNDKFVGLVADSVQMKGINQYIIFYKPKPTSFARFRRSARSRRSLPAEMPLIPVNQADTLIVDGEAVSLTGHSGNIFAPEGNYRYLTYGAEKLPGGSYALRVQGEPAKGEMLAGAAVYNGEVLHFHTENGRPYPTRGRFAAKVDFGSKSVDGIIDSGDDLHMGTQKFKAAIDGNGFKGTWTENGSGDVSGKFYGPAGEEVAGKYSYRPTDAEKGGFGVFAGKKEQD

[5] = target: GNA1870 (factor H binding protein, fHbp) (Neisseria meningitidis) (UniProt Q9JXV4); assay: as above
[6] = target: T1, Genome-derived Neisserial antigen GNA0667 (Neisseria meningitidis); assay: ELISA; microtiter plate; different doses of bPTX3 on coated GNA0667, GNA1030 and GNA2091 (1 μg/well); both purified
[7] = target: Ovoalbumin (OVA) (UniProt P01012); assay: ELISA; human bPTX3 on immobilized OVA (1 μg/well); A450; both purified
[8] = target: T1, Genome-derived Neisserial antigen GNA0667 (Neisseria meningitidis); assay: ELISA; microtiter plate; PTX3 on coated Nm antigens in the presence or not of calcium (10 mM EGTA); both purified
[9] = target: T1, Genome-derived Neisserial antigen GNA0667 (Neisseria meningitidis); assay: ELISA; microtiter plate; N-terminal or C-terminal PTX3 domains (22 pmoles) on coated GNA0667, GNA1030 and GNA2091; percentage of binding compared to full length PTX3; both purified

Row | Substance | binding [1] | binding [2] | binding [3] | binding [4] | binding [5] | binding [6] | binding [7] | binding [8] | binding [9]
1 | Serum amyloid P component (from UniProt P02743 20-223) | binds | – | – | – | – | – | – | – | –
2 | Recombinant murine PTX3 (from UniProt P48759 18-381) | binds | no binding (tested: 22 pmoles) | no binding (tested: 22 pmoles) | no binding (tested: 22 pmoles) | no binding (tested: 22 pmoles) | – | – | – | –
3 | Biotinylated human PTX3 (bPTX3) (from UniProt P26022 18-381) | – | – | – | – | – | binds | no binding | binds | –
4 | Recombinant human long pentraxin 3 (PTX3) (from UniProt P26022 18-381) | binds | no binding (tested: 22 pmoles) | no binding (tested: 22 pmoles) | no binding (tested: 22 pmoles) | no binding (tested: 22 pmoles) | – | – | – | binds

— PMC4364741
